PubChem BioAssay AID1159578 | Peter MacCallum Cancer Centre | 2015
Test: 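Genome-wide hunt for genes controlling movement of lymphatic endothelial cells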 (primary screen). Cells: human lymphatic endothelial cells. Knock-down reagent: siRNA pool against human genes, 40 nM. Timing: 48 h after transfection. Read-out: 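High-content imaging of dye-stained cells in a scratch assay measures filled wound area and nuclei per well; duplicate means given as ratio to mock and robust z-score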. Reading the numbers: migration robust z-score: higher = faster migration into the scratch; nuclei per well: higher = more cells in the well. Rule for the call: 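Migration changed when robust z exceeds 2 or falls below -2 and mean nuclei number is at least 3300; otherwise not called changed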. Calls: active = migration changed; inactive = no migration change, or too few cells.
This is a random part of about 18,000 deposited reagents. About 1,030 of them (5.7%) count as active. 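Inactive calls also include pools with fewer than 3300 nuclei, whose migration was not assessed.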 Raw values are not corrected between plates. Further read-outs or replicates are left out here. No sequences are given here.

gene knocked down | migration robust z-score | nuclei per well, duplicate mean | Outcome
TMEM132B | 0.49 | 6503 | inactive
MAP3K12 | -0.93 | 3978 | inactive
KATNAL1 | 0.02 | 6189 | inactive
VPS25 | 1.87 | 6935 | inactive
OR3A2 | 0.52 | 6003 | inactive
SERAC1 | 0.87 | 6340 | inactive
MTIF3 | 0 | 5978 | inactive
OR1F1 | -1.62 | 4792 | inactive
CROCC | -0.15 | 5002 | inactive
SVBP | -0.76 | 6570 | inactive
MYD88 | 2.25 | 5376 | active
MCEE | -0.84 | 3494 | inactive
KRT24 | 0.06 | 6740 | inactive
ALYREF | -0.46 | 5380 | inactive
ORC6 | 0.4 | 6258 | inactive
RAB44 | -0.4 | 5852 | inactive
OR2T3 | 1.53 | 5832 | inactive
LRRC40 | -0.5 | 5487 | inactive
ZMYND15 | 1.48 | 5616 | inactive
VWA1 | 0.18 | 6230 | inactive
NR4A2 | -2.59 | 2682 | inactive
KLHDC9 | -1.88 | 2373 | inactive
MMD2 | -0.2 | 6864 | inactive
SLC25A33 | 2.51 | 6567 | active
PLEKHB1 | 0.04 | 5983 | inactive
LRG1 | 0.22 | 6066 | inactive
FAM131A | -1.06 | 6580 | inactive
COPB2 | -2.08 | 4802 | active

Reagents listed so far called active:
gene knocked down | migration robust z-score | nuclei per well, duplicate mean | Outcome
MYD88 | 2.25 | 5376 | active
SLC25A33 | 2.51 | 6567 | active
COPB2 | -2.08 | 4802 | active

The listing continues.
gene knocked down | migration robust z-score | nuclei per well, duplicate mean | Outcome
VWA5B1 | 0.28 | 6712 | inactive
DHX33 | -1.01 | 5538 | inactive
OR11H4 | 1.14 | 5138 | inactive
DDX11 | 0.08 | 5755 | inactive
NAGLU | -0.96 | 5767 | inactive
DLEC1 | 0.28 | 3984 | inactive
CHRAC1 | 0 | 4505 | inactive
KLK12 | 0.16 | 5153 | inactive
TRIM62 | 0.65 | 5693 | inactive
GPR6 | 0.7 | 5956 | inactive
SNHG29 | 2.76 | 6957 | active
KDM5D | 0.75 | 5764 | inactive
SMPDL3B | 0.18 | 4958 | inactive
FAM219B | 0.86 | 6524 | inactive
GAST | -1.48 | 4858 | inactive
MSMO1 | 0.86 | 6710 | inactive
MATN3 | 0.13 | 5799 | inactive
SETD5 | -0.14 | 5915 | inactive
MIGA1 | 1.56 | 4455 | inactive
A2M | 0.46 | 4756 | inactive
C19orf12 | 0.05 | 5254 | inactive
INCA1 | 0.7 | 5119 | inactive
DPY19L4 | -0.15 | 4813 | inactive
PAX9 | -0.24 | 3734 | inactive
RGS6 | 0.42 | 6273 | inactive
MRFAP1 | 0.17 | 6441 | inactive
NUP62CL | 0.56 | 6356 | inactive
UBR7 | 0.54 | 6426 | inactive
RNF5 | 1.68 | 6186 | inactive
NDUFAF7 | -0.6 | 6002 | inactive
PRDM10 | 0.37 | 6160 | inactive
CMSS1 | 2.73 | 5740 | active
CDKL1 | -3.52 | 2915 | inactive
CITED4 | 1.12 | 5291 | inactive
SFR1 | -0.16 | 5536 | inactive
C1orf146 | -0.52 | 5936 | inactive
PCDHGA2 | 0.8 | 6550 | inactive
SSX1 | 0.42 | 4660 | inactive
ACP4 | -0.6 | 5516 | inactive
ZNF232 | 0 | 5748 | inactive
ANO8 | -1.8 | 5707 | inactive
ZNF496 | -0.84 | 4950 | inactive
FOXD4 | -0.24 | 6400 | inactive
GNLY | -0.11 | 6047 | inactive
HLA-L | 0.24 | 5832 | inactive
